This note sets out measurements from publication PMC2481268.

No constants are given. Whether binding was seen depends on the method and setting. Binding can be weak; no strength is given. Tags and fused reporters may be left off the sequences shown. For part of these data: Binding seen in cells or lysates may run through a third protein.

For assay [1], the target named is GAL4 DNA binding domain-HIV-1 integrase fusion (pGBKT7-hIN) (HIV-1). Put plainly: two-hybrid; GAL4 DNA binding domain fusions (pGBKT7) and GAL4 AD fusions in S. cerevisiae SFY526; qualitative colony lift assay (GAL1-lacZ).
The target of assay [2] is GAL4 DNA binding domain-MoMLV integrase fusion (pGBKT7-mIN) (Moloney murine leukemia virus). The description is as above.
Assay [3] deals with MoMLV integrase-lexA fusion (mIN-pNlexA) (Moloney murine leukemia virus). The experiment in a line: two-hybrid; lexA fusions (pSH2-1 or pNlexA) as baits and GAL4 AD fusions (pGADNOT or pACT2) in S. cerevisiae CTY10-5d; qualitative X-gal colony lift assay (lexAop-lacZ) at 30°C.
Assay [4] addresses lexA-MoMLV integrase fusion (pSH2-mIN) (Moloney murine leukemia virus). The description is as above.
The target of assay [5] is lexA-HIV-1 integrase fusion (pSH2-hIN) (HIV-1). Described as above.
For assay [6], the target named is maltose binding protein-MoMLV integrase fusion (pmalc2-mIN) (Moloney murine leukemia virus). The experiment in a line: pull-down; MBP fusion lysates bound to amylose resin and washed; GST fusion E. coli lysates added, 1 h at 4°C; washed in Buffer A or C with 0.1-0.3% IGEPAL CA-630; eluted with 15 mM maltose; Western with anti-GST and anti-MBP; only the target purified.

In assay [7] the target is maltose binding protein-HIV-1 integrase fusion (pmalc2-hIN) (HIV-1). The assay is described as above.
The target of assay [8] is maltose binding protein-MoMLV integrase fusion (pmalc2-mIN) (Moloney murine leukemia virus). The experiment in a line: pull-down; as the MBP-GST binding assay, but each E. coli lysate treated with DNase (Turbo DNA-free) and RNase before the lysates were mixed (Figure 5).
The target in assay [9] is maltose binding protein-HIV-1 integrase fusion (pmalc2-hIN) (HIV-1). The assay is described as above.

B1: Tata binding protein ABT1 (ABT1), GAL4 AD clone (domain or fragment, UniProt Q9QYL7 20-269)
chain: NAEAAEDQEEPEDTACSSSSKKKKKVVPGIVYLGHVPPRFRPLHVRNLLSAYGEVGRVFFQAEDHFVKRKKKAAAAAGGKKGAKYSKDYTEGWVEFRDKRVAKRVAASLHNTPMGARKRSPFRYDLWNLKYLHRFTWSHLSEHLAFERQVRRQRLRAEVAQAKRETDFYLRNVEQGQHFLAADGDATRPNSSWTFTQRPTEQEFRARKAARPGGRERARLANVEDQARSNRGLLAKIFGAPLPAESKEKP
Take B1: the binding result in [1] was “no binding”; in assay [2], “binds”; in assay [3], “binds”; in [4], “binds”; in assay [5], “binds”.

B2: GST-U5snRNP (two-hybrid insert in pGEX2TPL) (domain or fragment, UniProt Q6P4T2 1939-2136)
chain: ALAAMELAQMVTQAMWSKDSYLKQLPHFTSEHIKRCTDKGVESVFDIMEMEDEERNALLQLTDSQIADVARFCNRYPNIELSYEVVDKDSIRSGGPVVVLVQLEREEEVTGPVIAPLFPQKREEGWWVVIGDAKSNSLISIKRLTLQQKAKVKLDFVAPATGGHNYTLYFMSDAYMGCDQEYKFSVDVKEAETDSDSD
For B2, the binding entry in assay [6] and in assay [7] was “binds” each time.

B3: U5 small nuclear ribonucleoprotein (U5 snRNP), GAL4 AD clone (domain or fragment, UniProt Q6P4T2 1939-2136)
chain: ALAAMELAQMVTQAMWSKDSYLKQLPHFTSEHIKRCTDKGVESVFDIMEMEDEERNALLQLTDSQIADVARFCNRYPNIELSYEVVDKDSIRSGGPVVVLVQLEREEEVTGPVIAPLFPQKREEGWWVVIGDAKSNSLISIKRLTLQQKAKVKLDFVAPATGGHNYTLYFMSDAYMGCDQEYKFSVDVKEAETDSDSD
In the case of B3, the binding entry is reported as “no binding” in assay [2], “no binding” in assay [3], “binds” in [4] and “binds weakly” in [5].

B4: GST-U2AF^26 (two-hybrid insert in pGEX2TPL) (domain or fragment, UniProt Q8BGJ9 53-220)
chain: RNPQNTAQTADGSHCHVSDVEVQEHYDNFFEEVFTELQEKYGEIEEMNVCDNLGDHLVGNVYVKFRREEDAERAVAELNNRWFNGQAVHAELSPVTDFRESCCRQYEMGECTRGGFCNFMHLRPISRNLRRQLYGRGPRHRSPPRSHTGHRPRERNRRRSPDHRHGRF
Regarding B4, the binding result in assay [8], in assay [9], in [6] and in assay [7] was “binds” in each case.

B5: U2 auxiliary factor 26 (U2AF^26), GAL4 AD clone (domain or fragment, UniProt Q8BGJ9 53-220)
chain: RNPQNTAQTADGSHCHVSDVEVQEHYDNFFEEVFTELQEKYGEIEEMNVCDNLGDHLVGNVYVKFRREEDAERAVAELNNRWFNGQAVHAELSPVTDFRESCCRQYEMGECTRGGFCNFMHLRPISRNLRRQLYGRGPRHRSPPRSHTGHRPRERNRRRSPDHRHGRF
For the molecule B5, the binding result in [2] was “no binding”; in assay [3], “binds”; in [4] it was “binds”; in [5] it was “binds”.

B6: Step II Splicing factor SLU7, GAL4 AD clone (domain or fragment, UniProt Q8BHJ9 27-585)
chain: KMTREDWRKKKELEEQRKLGNAPAEVDEEGKDINPHIPQYISSVPWYIDPSKRPTLKHQRPQPEKQKQFSSSGEWYKRGVKENSITTKYRKGACENCGAMTHKRKDCFERPRRVGAKFTGTNIAPDEHVQPQLMFDYDGKRDRWNGYNPEEHMKIVEEYAKVDLAKRTLKAQKLQEELASGKLVEQANSPKHQWGEEEPNSQMEKDHNSEDEDEDKYADDIDMPGQNFDSKRRITVRNLRIREDIAKYLRNLDPNSAYYDPKTRAMRENPYANAGKNPDEVSYAGDNFVRYTGDTISMAQTQLFAWEAYDKGSEVHLQADPTKLELLYKSFKVKKEDFKEQQKESILEKYGGQEHLDAPPAELLLAQTEDYVEYSRHGTVIKGQERAVACSKYEEDVKINNHTHIWGSYWKEGRWGYKCCHSFFKYSYCTGEAGKESVNSEECIITGATAEESVKKPQALLELHQEKLKEEKKKKKKKKKHRKSSSDSDDEERKQEKLKKALNAEEARLLHVKEIMQIDERKRPYNSIYETREPTEEEMEAYRMKRQRPDDPMASFLGQ
Turning to B6, the binding result is reported as “no binding” in assay [1]; “no binding” in assay [2]; “binds” in assay [3]; “binds” in assay [4]; “binds” in assay [5].

B7: GST-Baz2b (two-hybrid insert in pGEX2TPL) (domain or fragment, UniProt A2AUY4-1 615-883)
chain: TEGEKPAVNLTQTSSSAKSPPSSLTAHSAPHLHIGSPPGSAPAALCSESQPPAFLGTSSSTLTSTPHSGTSKRRRVADDQELRIPLDYGWQRETRVRNFGGRLPGEVAYYAPCGKKLRQCPDMVKGMQWCLLKEEDVIPRIRAMDGRRGRPPNPDRPRAREESRMKRRKGRPPNVGSAEFLDNTDAKLLRKLQAQEIARQAAQIKLLRKLQKQEQARVAKEAKKQQAIMAAEEKRKQKEQMKIIKQQEKIKRIQQIRMEKELRAQQILE
As to B7, the binding entry in [8], in assay [9], in [6] and in assay [7] was “binds” each time.

B8: Bromodomain adjacent to zinc finger domain, 2B (Baz2b), GAL4 AD clone (domain or fragment, UniProt A2AUY4-1 615-883)
chain: TEGEKPAVNLTQTSSSAKSPPSSLTAHSAPHLHIGSPPGSAPAALCSESQPPAFLGTSSSTLTSTPHSGTSKRRRVADDQELRIPLDYGWQRETRVRNFGGRLPGEVAYYAPCGKKLRQCPDMVKGMQWCLLKEEDVIPRIRAMDGRRGRPPNPDRPRAREESRMKRRKGRPPNVGSAEFLDNTDAKLLRKLQAQEIARQAAQIKLLRKLQKQEQARVAKEAKKQQAIMAAEEKRKQKEQMKIIKQQEKIKRIQQIRMEKELRAQQILE
As for B8, the binding entry in assay [1] is “no binding”; in [2] it was “no binding”; in assay [3], “binds”; in assay [4] it was “binds”; in assay [5] it was “binds”.

B9: B-Activating transcription factor (B-ATF), GAL4 AD clone (protein, UniProt O35284 1-120)
chain: MPHSSDSSDSSFSRSPPPGKQDSSDDVRKVQRREKNRIAAQKSRQRQTQKADTLHLESEDLEKQNAALRKEIKQLTEELKYFTSVLSSHEPLCSVLASGTPSPPEVVYSAHAFHQPHISS
Consider B9, for which the binding result in [1] was “no binding”; in assay [2], “no binding”; in [3] it was “binds”; in [4], “binds”; in assay [5] it was “binds weakly”.

B10: GST-SF3a3 (two-hybrid insert in pGEX2TPL) (domain or fragment, UniProt Q9D554 318-501)
chain: KDIAFLEAQIYEYVEILGEQRQLTHENVQRKQARTGEEREEEEEEQISESESEDEENEIIYNPKNLPLGWDGKPIPYWLYKLHGLNINYNCEICGNYTYRGPKAFQRHFAEWRHAHGMRCLGIPNTAHFANVTQIEDAVSLWAKLKLQKASERWQPDTEEEYEDSSGNVVNKKTYEDLKRQGLL
With B10, the binding entry in [6] and in [7] was “binds” throughout.

B11: Splicing factor 3a, subunit 3 (SF3a3), GAL4 AD clone (domain or fragment, UniProt Q9D554 318-501)
chain: KDIAFLEAQIYEYVEILGEQRQLTHENVQRKQARTGEEREEEEEEQISESESEDEENEIIYNPKNLPLGWDGKPIPYWLYKLHGLNINYNCEICGNYTYRGPKAFQRHFAEWRHAHGMRCLGIPNTAHFANVTQIEDAVSLWAKLKLQKASERWQPDTEEEYEDSSGNVVNKKTYEDLKRQGLL
For the molecule B11, the binding entry is recorded as “no binding” in assay [1]; “no binding” in [2]; “binds” in assay [3]; “binds” in assay [4]; “binds” in assay [5].

B12: Ankyrin rep domain 49 (Ankrd49), GAL4 AD clone (domain or fragment, UniProt Q8VE42 6-190)
chain: KDDEKPDLENSVDFSEQFNQLELLKTHGHLIPTGTQSLWVGNSDEDEEQEEKNEEWYQLQEKKMEKDPSKLLLWAAEKNRLATVQRLLSEKAAEVNTRDEDEYTPLHRAAYSGHIDVVRELVAKGADVHAVTVDGWTPLHSACKWNNTKVASFLLQHDADINAQTKGLLTPLHLAAGNRDSRDTL
On to B12, for which the binding entry is listed as “binds weakly” in assay [1]; “no binding” in assay [2]; “no binding” in assay [3]; “binds” in assay [4]; “binds” in assay [5].

B13: GST-Ankrd49 (two-hybrid insert in pGEX2TPL) (domain or fragment, UniProt Q8VE42 6-190)
chain: KDDEKPDLENSVDFSEQFNQLELLKTHGHLIPTGTQSLWVGNSDEDEEQEEKNEEWYQLQEKKMEKDPSKLLLWAAEKNRLATVQRLLSEKAAEVNTRDEDEYTPLHRAAYSGHIDVVRELVAKGADVHAVTVDGWTPLHSACKWNNTKVASFLLQHDADINAQTKGLLTPLHLAAGNRDSRDTL
With B13, the binding result in assay [8], in [9], in [6] and in assay [7] was “binds” in each case.
